Source: PubChem BioAssay AID662 (National Center for Advancing Translational Sciences (NCATS), 2007)
The list shows a part of the results. These are further read-outs of the screen, such as a control signal, another cell line or another target. No call is given for them. The list favours compounds with an active or inconclusive main result. Potencies come from curve fits of mixed quality, noted in brackets.

test: Cell signaling CRE-BLA (Fsk stim); settings: CHO CRE-bla reporter (cAMP response element driving beta-lactamase), forskolin EC10, beta-lactamase ratio; measured here: 460 nm blue channel
Outline: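 qHTS titration format; CRE-bla CHO reporter; stimulus EC10 NKH 477, a water-soluble forskolin. Read: CCF4 460/530 nm ratio. Potency expressed as AC50 for activators or inhibitors.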

SMILES | AC50
CC(=O)Nc1nonc1C(=O)N1CCC(C)CC1 | 15.8 µM [rising, single point]
COCCCN=C(c1ccco1)n1c(=S)nc(-c2ccco2)n(CCCOC)c1=S | 12.6 µM [falling, partial curve]
COc1ccc(C2CC(=O)c3cnc(NC(=O)c4ccccc4)nc3C2)cc1OC (stereo not drawn) | 12.6 µM [rising, partial curve]
NC(=O)CCn1nc(-c2ccc(Cl)cc2)c2ccccc2c1=O | 20 µM [rising, single point]
CCOc1cc(-c2noc(CCC(=O)Nc3cccnc3)n2)ccc1OC | 5.01 µM [falling, partial curve]
COc1ncc2nc(-c3ccc(F)cc3)c(=O)n(Cc3cccs3)c2n1 | 12.6 µM [rising, partial curve]
COc1cc(C2=NOC(C(=O)N3CCCc4ccccc43)C2)cc(OC)c1OC (stereo not drawn) | 25.1 µM [rising, single point]
CC1=C(C(=O)OCc2ccccc2)C(c2ccc(C(F)(F)F)cc2)NC(=O)N1CCCCCC(=O)O (stereo not drawn) | 12.6 µM [rising, partial curve]
CCC(=O)Nc1cc2c(cc1C(=O)CC)OCCO2 | 10 µM [rising, partial curve]
Cc1ccc(NC(=O)CN(C)S(=O)(=O)c2cccc3nsnc23)cc1C | 25.1 µM [falling, single point]
COC(=O)c1ccccc1OCC(=O)NC1CCCCC1 | 25.1 µM [rising, single point]
O=S(=O)(c1cccc2nsnc12)N1CCc2ccccc2C1 | 0.158 µM [falling, full curve, poor fit]
CCOc1ccc(Nc2cc(C)nc3nc(C)nn23)cc1 | 6.31 µM [rising, partial curve]
CCn1c2ccccc2c2nnc(SCc3cc(=O)n4ccsc4n3)nc21 | 2 µM [rising, full curve]
COc1ccc(-c2cc(C(=O)Nc3cccc(C(C)=O)c3)no2)cc1 | 0.00398 µM [falling, full curve, poor fit]
O=C(Nc1cccc2c1CCCC2)C1CCCN(S(=O)(=O)c2cccc3nonc23)C1 (stereo not drawn) | 15.8 µM [falling, partial curve]
Cc1cc(Nc2ncc(Cl)cc2Cl)n[nH]1 | 0.00316 µM [falling, full curve, poor fit]
O=C1c2ccccc2-c2ncnc3cccc1c23 | 1.58 µM [rising, partial curve]
Cc1cc(C)n(CCc2nc(-c3cc4ccccc4o3)cs2)n1 | 5.01 µM [falling, single point]
CCC1(C)Cc2ccccc2-c2c1c(=O)n(Cc1ccccc1)c1nnnn21 (stereo not drawn) | 3.16 µM [rising, single point]
Cc1cc(NC(=O)Cn2cnc3c2c(=O)n(C)c(=O)n3C)n(-c2ccccc2)n1 | 5.01 µM [falling, single point]
COc1ccccc1CNc1cc(-c2cccnc2)ncn1 | 10 µM [rising, partial curve]
CCNc1ncc2nc(-c3cc(F)cc(F)c3)c(=O)n(CCc3ccccc3)c2n1 | 1 µM [rising, full curve]

SMILES | AC50
CCOC(=O)C(C)n1cnc2c(nnn2Cc2ccc(C)cc2)c1=O (stereo not drawn) | 20 µM [rising, partial curve]
O=C(Nc1cc(Cl)ccc1O)c1cc2n(n1)C(C(F)(F)F)CC(c1ccc3c(c1)OCO3)N2 (stereo not drawn) | 2 µM [falling, full curve, poor fit]
O=C(CSc1nnc(-c2ccccc2F)n1C1CCCCC1)N1CCCC1 | 0.02 µM [falling, partial curve, poor fit]
CN(C(=O)CSc1nnc(NC2CCCCC2)s1)C1CCS(=O)(=O)C1 (stereo not drawn) | 3.98 µM [falling, single point]
COc1ccc(-n2c(Cc3cccn3C)nnc2SCC(=O)Nc2ccc(Cl)cc2)cc1 | 12.6 µM [falling, partial curve]
Cc1ccc(N2C(=O)c3ccc(N)cc3C2=O)cc1C | 7.94 µM [rising, partial curve]
c1ccc(-c2nn3nnnc3c3ccccc23)cc1 | 25.1 µM [rising, single point]
Cc1nnc(SCc2nnc(-c3ccccc3Br)o2)n1-c1ccccc1 | 10 µM [rising, single point]
CCOC(=O)Cn1c(=O)oc2cc(S(=O)(=O)Nc3ccc(N(CC)CC)cc3C)ccc21 | 20 µM [falling, single point]
COc1ccccc1CN1CC[C@@]2(CCCN(C(C)=O)C2)C1 | 5.01 µM [falling, single point]
Cc1cc(C(=O)OCC(=O)N2CCN(c3ccccc3)CC2)c2ccccc2n1 | 25.1 µM [rising, single point]
CCOc1cccc(C(=O)Nc2cccc(-c3nnc(-c4ccccc4)o3)c2)c1 | 0.316 µM [falling, single point]
Clc1ccccc1-c1nc(NCc2cccnc2)c2ccccc2n1 | 6.31 µM [rising, full curve]
CCOC(=O)N1CCN(C(=O)C2CCN(S(=O)(=O)N3CCCC3)CC2)CC1 | 0.126 µM [rising, full curve, poor fit]
CC(OC(=O)C(NC(=O)c1ccco1)C(C)C)C(=O)Nc1ncc(Cl)cc1Cl (stereo not drawn) | 1 µM [falling, full curve, poor fit]
Cc1oc(-c2nc3ccccc3n2C)cc1C(=O)c1ccccc1 | 7.94 µM [rising, partial curve]
CN1CCN(c2ncnc3ccc(-c4ccccc4Cl)cc23)CC1 | 7.94 µM [rising, partial curve]
CN(CC(=O)NC1CCCCC1)S(=O)(=O)c1ccc(Br)s1 | 0.00794 µM [falling, full curve, poor fit]
CC(C)OCCCNC(=O)CNC(=O)c1cccs1 | 0.631 µM [falling, partial curve]
Cc1ccc(SCc2cc(=O)[nH]c(N3CCCCC3)n2)cc1 | 10 µM [falling, partial curve]
CCNc1ncc2nc(-c3cn(C)c4ccccc34)c(=O)n(-c3ccc(OC)cc3)c2n1 | 10 µM [rising, partial curve]
O=C1[C@@H]2[C@H](Cc3ccc(O)cc3)N[C@]3(C(=O)Nc4ccccc43)[C@@H]2C(=O)N1c1ccc(F)cc1 | 20 µM [falling, partial curve, poor fit]
C=CCn1c(N)c(C(=O)Nc2ccccc2OC)sc1=S | 0.316 µM [rising, partial curve]

SMILES | AC50
Cc1cc(C(=O)OCCO)c(C#N)c(N)n1 | 10 µM [rising, single point]
O=C(C1CCN(S(=O)(=O)c2cccnc2)CC1)N1CCN(C2CCCC2)CC1 | 0.00316 µM [falling, full curve]
O=C1CCCC2=C1C1(CCCC1)N=C(Nc1nc3ccccc3o1)N2 | 1 µM [rising, partial curve]
COc1ccc(CCNC(=O)C2CC2)cc1OC | 0.00316 µM [falling, full curve, poor fit]
CCOc1ccc(-c2cc(CCCC(=O)Nc3cccc(OC)c3)no2)cc1 | 5.01 µM [rising, full curve]
Cc1ccccc1-n1nc(C)c2cc(C(=O)NCc3cccnc3)sc21 | 25.1 µM [rising, single point]
c1cncc(-c2nc(-n3ccnc3)c3ccccc3n2)c1 | 7.94 µM [rising, partial curve]
N=c1c(C(=O)NCC2CCCO2)cc2c(=O)n3ccccc3nc2n1Cc1cccnc1 (stereo not drawn) | 12.6 µM [rising, partial curve]
Cc1nn(C)cc1CN(C)C(=O)c1nn2c(c1Cl)NC(c1cccs1)CC2C(F)(F)F (stereo not drawn) | 25.1 µM [rising, single point]
CCn1c(=O)c(C(C)=O)nc2ccccc21 | 12.6 µM [rising, partial curve]
OC1(c2cccc(C(F)(F)F)c2)CCNCC1 | 31.6 µM [falling, partial curve]
CC(=O)OCC(=O)NCc1ccc2c(c1)OCO2 | 5.01 µM [falling, single point]
CCN1C(=S)SC(=O)C1=C1C=C(C)OC(C)=C1 | 5.01 µM [falling, partial curve]
Cc1nc(N2C(=O)C(=O)/C(=C(/O)c3ccccc3)C2c2ccco2)sc1C (stereo not drawn) | 12.6 µM [rising, single point]
CCOC(=O)Cc1nnc(NC(=O)CSc2nnc3c4ccccc4n(C)c3n2)s1 | 3.16 µM [rising, partial curve]
Cn1nc(-c2ccc(Cl)cc2)c2cc(C(=O)NCC3CCCO3)sc21 (stereo not drawn) | 5.01 µM [rising, partial curve]
Cc1ccc(N=C2SCCCN2C(=O)c2ccco2)cc1Cl | 3.16 µM [falling, full curve]
c1nc(N2CCNCC2)c2cc(-c3ccc4c(c3)OCO4)ccc2n1 | 15.8 µM [rising, partial curve]
CCCCC[C@H](O)/C=C\[C@H]1[C@H](C/C=C\CCCC(=O)O)[C@@H](O)C[C@H]1O (tested in a mixture with another compound) | 2.51 µM [rising, full curve]
COC(=O)c1c(C)nc(C)c2c(=O)oc3ccccc3c12 | 10 µM [rising, partial curve]
Cc1cccc(-n2c(N)cc(=O)nc2SCC(=O)Nc2ccccc2)c1 | 25.1 µM [rising, single point]
O=c1c2c(nc3nc(COc4ccccc4)[nH]n13)CCC2 | 15.8 µM [rising, single point]

3 of the compounds above, tab-delimited.
SMILES	AC50
Cc1nn(C)cc1CN(C)C(=O)c1nn2c(c1Cl)NC(c1cccs1)CC2C(F)(F)F (stereo not drawn)	25.1 µM [rising, single point]
CCn1c(=O)c(C(C)=O)nc2ccccc21	12.6 µM [rising, partial curve]
OC1(c2cccc(C(F)(F)F)c2)CCNCC1	31.6 µM [falling, partial curve]
